Measurements reported in the supplement of paper PMC12578635.
Some of the results follow. Rule as the data show it: active = 150% or more and inactive = the rest. Many values rest on one well or one pass, so single values are uncertain.

System: Staphylococcus aureus JE2-lux inside RAW 264.7 macrophages
Experiment: intracellular bacterial bioluminescence relative to DMSO vehicle; higher = higher intracellular bacterial metabolic activity
Details: 10 µM; treatment time 4 h; gentamicin 50 µg/ml

Intracellular bacterial bioluminescence, inactive:
COc1ccc(N(CC(=O)NCCc2ccccc2)C(=O)c2csnn2)cc1 106%
CCC1CCCCN1C(=O)Cn1nc(-c2cc(C)oc2C)cc(N)c1=O (stereo unspecified) 74.8%
COc1ccc(C(=O)Oc2coc(CSc3nc(C)cs3)cc2=O)cc1OC 85.1%
COc1cc2cc(C#N)c(SCC(=O)c3ccc(F)cc3)nc2cc1OC 123%
CCc1nnsc1C(=O)Nc1c(C(=O)Nc2cccc(Cl)c2)oc2ccccc12 113%
O=C(CSc1nnc2n(Cc3ccccc3)c3ccccc3n12)N1CCc2ccccc21 10.4%
Cc1ccc(NC(=O)c2ccc3nnc(SCC(=O)NCc4ccc(Cl)cc4)n3c2)cc1 70.3%
COc1ccc(NC(=O)CSc2nnc3ccc(S(=O)(=O)c4ccccc4)nn23)cc1 54.3%
C=CCOc1ccccc1NC(=O)c1ccc2c(c1)nnn2C1CCCCC1 96.2%
Cc1ccc2nc(SCC(=O)NCc3ccccc3)nc(=O)n2c1 96.4%
NC(=O)CSc1nc2ccc(N3CCOCC3)cc2c(=O)n1CCc1ccccc1 80.2%
CCN(CC)c1ncc(C(=O)Nc2ccc(OC)cc2OC)c2ccccc12 93.8%
Cn1cnc(S(=O)(=O)NCc2nnc(C(=O)Nc3ccc(F)cc3F)s2)c1 101%
COc1ccc(-n2c(-c3ccccc3)cn3c4c(=O)[nH]c(=O)n(C)c4nc23)cc1Cl 111%
O=C(CSc1nc(=O)n2ccccc2n1)Nc1cccc(Cl)c1 19.2%
Cc1cc(C)c2s/c(=N\C(=O)CN3C(=O)c4ccccc4C3=O)n(C)c2c1 86.6%
CCOC(=O)Cn1c(Cl)c(/C=N/NC(=O)c2ccc3ccccc3n2)sc1=O 104%
COc1ccc(S(=O)(=O)Nc2cccc(C(=O)Nc3nc4cc5c(cc4s3)OCO5)c2)cc1 65%
CCOC(=O)c1nc(Cl)c2c(C)c(C)n(-c3cccc(Cl)c3)c2n1 88.3%
Cn1c(=O)[nH]c(=O)c2c1nc1n2CC(COc2ccc3ccccc3c2)O1 (stereo unspecified) 82.1%
Cc1nc(SCC(=O)Nc2sc3c(c2C#N)CCCC3)c2c3c(sc2n1)CCC3 108%
CCSc1cccc(C(=O)Nc2sc3c(c2C#N)CCN(C(C)=O)C3)c1 74.7%
O=C(CCc1ccccc1)NCCn1nc(-c2cccs2)oc1=O 96.9%
O=C(COc1ncnc2ccccc12)Nc1c[nH]c2ccccc12 14.2%
Cc1ccc2nc(NC(=O)CSc3nnc4[nH]c(=O)c(C)c(C)n34)sc2c1 107%
CCOc1ccc(C(=O)NCCSc2ncc(-c3ccccc3)[nH]2)cc1 109%
COc1cccc(C(=O)Nc2c3c(nn2-c2ccccc2C)CS(=O)C3)c1 (stereo unspecified) 75.4%
CCOc1ccccc1/C=C1\Oc2c(ccc(O)c2CN(CC)CC)C1=O 91%
CC(Nc1nc2c(S(=O)(=O)c3ccc(Cl)cc3)nnn2c2ccccc12)c1ccccc1 (stereo unspecified) 120%
Cc1cc(Nc2ccc3c(c2)OCO3)n2c(n1)nc1ccccc12 129%
COc1ccc(S(=O)(=O)Nc2cccc(-c3nc4cccnc4s3)c2)cc1F 93.3%
CN1CCN(C(CNC(=O)c2ccc(Cl)cc2)c2ccc3c(c2)OCO3)CC1 (stereo unspecified) 108%
CC(C)NC(=O)C1CCN(C(=O)c2cc(-c3ccccn3)[nH]n2)CC1 93.5%
O=c1oc2ccccc2cc1-c1csc(Nc2nc3cc4c(cc3s2)OCO4)n1 101%
O=C(CSc1nnc(NC(=O)C2CCCCC2)s1)Nc1nccs1 95.5%
CC(=O)C1C(c2cccc(C)c2)NC(=O)NC1(O)C(F)(F)F (stereo unspecified) 87.2%
N#CC1=C(SCC(=O)Nc2ccc(Br)cc2)NC(=O)CC1c1ccc2c(c1)OCO2 (stereo unspecified) 82.4%
O=C(CN(C(=O)c1csnn1)c1cnc2ccccc2c1)NCc1ccc(F)cc1 66.2%
CC(=O)Nc1c(-c2ccc(Cl)cc2)c(C)nn1-c1ccc(C(=O)Nc2nccs2)cc1 72.1%
Cn1c(=O)c2c(nc(SCC(=O)Nc3sc4c(c3C#N)CCCC4)n2C)n(C)c1=O 91.6%
Cc1cc(F)ccc1NC(=O)Cn1cccc1-c1nc(-c2ccccc2)cs1 92.2%
O=C(O)CC1SC(=O)N(c2ccccc2)C1=O (stereo unspecified) 110%
O=C(Cn1c(=O)c2ccccc2n2nncc12)NCc1ccccc1Cl 56%
Clc1ccc(C2C=C(c3ccco3)Nc3ncnn32)cc1 (stereo unspecified) 94.1%
Cc1ccc2c(c1)C1CC(C)(O2)N(c2ccc(C(=O)O)cc2)C(=O)N1 (stereo unspecified) 115%
COc1ccc(-c2ccnc3[nH]n(-c4nc(C)cc(C)n4)c(=O)c23)cc1 103%

Random excerpt: two compounds from above
Intracellular bacterial bioluminescence, inactive:
O=C(O)CC1SC(=O)N(c2ccccc2)C1=O (stereo unspecified) 110%
O=C(CSc1nnc2n(Cc3ccccc3)c3ccccc3n12)N1CCc2ccccc21 10.4%
